Measured values: PubChem BioAssay AID493014 (National Center for Advancing Translational Sciences (NCATS), 2011)
The list shows a part of the results. Shown are side measurements of this screen, not its main read-out; they come without a call. The list favours compounds with an active or inconclusive main result. The note in brackets gives the kind of curve behind each potency; many fits are weak.

Assay: qHTS Assay to Find Inhibitors of Chronic Active B-Cell Receptor Signaling
Conditions: ABC-DLBCL IkBa-CBG/CBR reporter, luminescence ratio (green luciferase fused to IkBa over red control in TMD8 lymphoma cells), 4 h
How it was run: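 Compounds up to 46 uM were incubated four hours with TMD8 cells whose green CBG68 luciferase is fused to IkappaBalpha; red CBR luminescence normalised the signal, and concentration-effect curves were fitted to fusion, red and ratio data.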

[1] = measured here: CBR red luminescence, cell number
[2] = measured here: IkBa-CBG green luminescence

## CCOC(=O)N1CCC(=NNC(=O)Cn2ccc(C(F)(F)F)n2)CC1
[1]
  AC50: 35.5 µM [falling, single point]

## COc1ccc(OCC(=O)Nc2cc(OC)ccc2N2CCCCC2)cc1
[1]
  AC50: 1 µM [falling, full curve]

## O=C(NCCCN1CCOCC1)[C@@H]1CSC2c3ccccc3C(=O)N21 (stereo partly specified)
[1]
  AC50: 2.31 µM [falling, single point]

## Cc1noc(NS(=O)(=O)c2ccc(NC(=O)C34CC5CC(C3)CC(n3cnc(Cl)n3)(C5)C4)cc2)c1C
[1]
  AC50: 1.64 µM [falling, partial curve, poor fit]

## COC(=O)C1=C(C(=O)OC)[C@@H]2Nc3ccccc3[C@@]23C[C@@H](C(=O)OC)N(C(C)=O)C3=N1
[1]
  AC50: 15.8 µM [rising, single point]

## COc1cc(SC)ccc1C(=O)OCc1nc2ccsc2c(=O)[nH]1
[2]
  AC50: 14.6 µM [rising, partial curve, poor fit]

## CC1CCCCN1S(=O)(=O)c1cnc(Cl)c(Br)c1 (stereo unspecified)
[1]
  AC50: 13 µM [falling, partial curve]

## CCS(=O)(=O)n1nc(-c2ccc(C)cc2)nc1N
[1]
  AC50: 16.4 µM [rising, single point]

## CCc1nnc(NS(=O)(=O)c2ccc(NC(=O)/C=C/c3ccc(OC)cc3OC)cc2)s1
[1]
  AC50: 2.31 µM [falling, full curve]

## CC(=O)Nc1ccc(S(=O)(=O)N/N=C/c2ccc(C)s2)cc1
[1]
  AC50: 2.91 µM [rising, full curve]

## O=C(Nc1nnc(C(F)(F)F)s1)c1c(F)cccc1F
[1]
  AC50: 14.1 µM [falling, single point]

## CC(C)(C)[C@H]1C=C(C(=O)N2CCN(Cc3ccccc3)CC2)O[C@@H](OCCCCO)C1
[1]
  AC50: 20 µM [falling, single point]

## COc1cccc(NC(=O)Cc2nnc(SCC(=O)c3ccccc3)n2C)c1
[1]
  AC50: 29.1 µM [falling, single point]

## CC(C)NC(=O)C(=O)c1cn(C)c2ccccc12
[1]
  AC50: 10 µM [falling, partial curve, poor fit]

## COC(CNC(=O)c1cc(C)nn1-c1ccccc1)OC
[1]
  AC50: 29.1 µM [falling, single point]

## O=C(NNC(=O)c1ccccc1Cl)c1ccc2c(c1)OCCO2
[1]
  AC50: 20.6 µM [falling, single point]

## O=C(O)CCC(=O)c1ccc(-c2ccccc2)cc1
[1]
  AC50: 11.2 µM [falling, single point]
[2]
  AC50: 0.355 µM [rising, partial curve, poor fit]

## CNc1sc(C(=O)c2cccs2)c(N)c1-c1nc2ccccc2s1
[1]
  AC50: 17.8 µM [falling, single point]
[2]
  AC50: 22.4 µM [falling, single point]

## CCCCN(CC)C(=O)Cn1ncc2c1-c1cc(C)ccc1OC2
[1]
  AC50: 1.84 µM [falling, single point]

## CC(C)N1CCN(S(=O)(=O)c2ccc3ccccc3c2)CC1
[1]
  AC50: 11.2 µM [falling, partial curve]

## CC(C)(C)OC(=O)NC(Cc1ccccc1)C(=O)N1CCC(C(=O)NCC(=O)Nc2ccc(F)cc2)CC1 (stereo unspecified)
[1]
  AC50: 0.891 µM [falling, full curve]

## COc1ccc(OC)c(/C=C/C(=O)NCCc2nc3ccccc3[nH]2)c1
[1]
  AC50: 20 µM [falling, partial curve, poor fit]

## CC(C)CN1C(=O)c2ccc(C(=O)Nc3ccccc3C(=O)O)cc2C1=O
[1]
  AC50: 12.6 µM [falling, partial curve, poor fit]

## CC(=O)Nc1ccccc1-c1nc2ccc(C(=O)N3CCN(c4cc(C)ccc4C)CC3)cc2[nH]c1=O
[1]
  AC50: 6.51 µM [rising, single point]

## COc1ccc(NC(=O)c2cccc(S(=O)(=O)NCc3ccco3)c2)c(OC)c1
[1]
  AC50: 1.16 µM [falling, partial curve, poor fit]

## CC/C(=C\C(=O)c1ccncc1)Nc1ccc(O)cc1
[2]
  AC50: 17.8 µM [falling, partial curve, poor fit]

## Cc1ccc(NC(=O)C2C3CCCCC32)cc1[N+](=O)[O-] (stereo unspecified)
[1]
  AC50: 10 µM [rising, partial curve, poor fit]

## O=C(NC1CCN(C(=S)Nc2ccccc2)CC1)C1CCCCC1
[1]
  AC50: 2.51 µM [rising, partial curve]

## CCN1C=C(Cc2ccccc2C)C2=C(C1)C(c1ccccc1C)C(C#N)=C(N)O2 (stereo unspecified)
[1]
  AC50: 8.2 µM [falling, partial curve, poor fit]

## COc1cc([N+](=O)[O-])ccc1-c1ccc(/C=N/NC(N)=O)o1
[1]
  AC50: 7.94 µM [rising, partial curve, poor fit]

## Cc1nn(-c2ccc(N3CCCCC3)nn2)c(C)c1CCC(=O)Nc1ccc(F)c(F)c1
[1]
  AC50: 28.2 µM [falling, single point]

## COC(=O)[C@@H]1[C@@H](C#N)C2(c3ccccc3-c3ccccc32)N(c2ccc(Cl)cc2)N1C#N
[1]
  AC50: 3.66 µM [falling, full curve, poor fit]
[2]
  AC50: 29.1 µM [falling, partial curve, poor fit]

## COc1ccc(N/N=C(/Oc2ccc([N+](=O)[O-])cc2)C(C)=O)cc1
[1]
  AC50: 20.6 µM [falling, single point]
[2]
  AC50: 16.4 µM [rising, partial curve, poor fit]

## CCc1nc2ccccc2nc1N1CCN(S(=O)(=O)c2c(C)cc(Cl)cc2C)CC1
[1]
  AC50: 4.47 µM [rising, single point]

## O=C(COc1ccc(Br)cc1)Nc1nnc(C2CC2)s1
[1]
  AC50: 4.61 µM [rising, single point]

## COc1ccccc1NC(=O)C(=O)c1cn(CC(=O)N2CCOCC2)c2ccccc12
[1]
  AC50: 1.26 µM [falling, partial curve, poor fit]

## C[C@@H]1CC[C@]2(C(=O)O)CC[C@]3(C)C(=CCC4[C@]56CC[C@@](O)(OC5)C(C)(C)C6CC[C@]43C)C2[C@H]1C (stereo partly specified)
[1]
  AC50: 5.8 µM [falling, partial curve]

## Oc1cccc(Nc2ncnc3c2oc2ccccc23)c1
[1]
  AC50: 10 µM [falling, partial curve]

## CCOC(=O)c1ccc(NC(=S)N2CCSC2c2ccc(Cl)cc2)cc1 (stereo unspecified)
[1]
  AC50: 20.6 µM [falling, single point]

## CCN(CC)C(=O)CSc1ncnc2c(-c3cccs3)nsc12
[1]
  AC50: 14.6 µM [falling, partial curve, poor fit]

## COc1cccc(C(C)NC(=O)c2c(F)cccc2Cl)c1 (stereo unspecified)
[1]
  AC50: 3.26 µM [rising, single point]

## Cc1ccc(NC(=O)Cn2nc(-c3ccccc3)nc(Cc3ccccc3)c2=O)cc1
[1]
  AC50: 3.16 µM [falling, partial curve, poor fit]

## O=c1c2ccccc2nc2ccc(NCc3cccs3)nn12
[1]
  AC50: 1.41 µM [falling, full curve]

## O=C(Nc1ccc2c(c1)OCO2)c1ccc(N2C(=O)c3ccccc3C2=O)cc1
[1]
  AC50: 6.51 µM [falling, single point]

## Cc1cc(C(=O)Nc2c(F)cc(F)cc2Br)n(-c2ccccc2)n1
[1]
  AC50: 14.1 µM [rising, partial curve, poor fit]

## O=C(NNC(=O)C12CC3CC(CC(C3)C1)C2)c1ccccn1
[1]
  AC50: 20 µM [rising, partial curve]
[2]
  AC50: 20 µM [falling, single point]

## CCOc1ccccc1NC(=O)C(OC(=O)c1cnccn1)c1ccccc1 (stereo unspecified)
[1]
  AC50: 16.4 µM [falling, partial curve, poor fit]

## Cc1ccc(S(=O)(=O)NCC(=O)OCC(=O)Nc2cccc(S(=O)(=O)NC3=NCCCCC3)c2)cc1
[1]
  AC50: 3.98 µM [falling, full curve, poor fit]

## CCC(C)C(=O)Nc1nc(C)c(-c2csc(Nc3cc(Cl)ccc3OC)n2)s1 (stereo unspecified)
[1]
  AC50: 8.91 µM [falling, partial curve, poor fit]

## CC(=O)Nc1cccc(Nc2nc(-c3cccs3)nc3ccccc23)c1
[1]
  AC50: 12.6 µM [falling, single point]

## COc1ccc(-n2c(C)c(C(=O)O)c3cc(OC)c4ccccc4c32)cc1
[1]
  AC50: 35.5 µM [falling, single point]

## O=[N+]([O-])c1cccc(NN=Nc2ccccc2)c1
[1]
  AC50: 0.794 µM [rising, partial curve, poor fit]

## CCOC(=O)c1c(C)[nH]c(C(=O)Nc2ccc(C)c(Cl)c2)c1C
[1]
  AC50: 32.6 µM [falling, single point]

## Cc1ccccc1/C=N/NC(=O)c1ccc(-n2cnnn2)cc1
[1]
  AC50: 25.9 µM [falling, single point]

## Cc1nnsc1C(=O)NC1CCCc2c1cnn2-c1ccc(C(C)(C)C)cc1 (stereo unspecified)
[1]
  AC50: 35.5 µM [falling, single point]

## COc1cc(/C=C2\S/C(=N/S(=O)(=O)c3ccc(C)cc3)NC2=O)c([N+](=O)[O-])cc1OC
[1]
  AC50: 14.6 µM [rising, partial curve]
[2]
  AC50: 20.6 µM [falling, partial curve]

## Cc1c(NS(C)(=O)=O)c(=O)n(-c2ccccc2)n1C
[1]
  AC50: 6.51 µM [rising, single point]

## Cc1ccc(C(=O)N/C(=C\c2ccc(-c3ccc(Cl)cc3)o2)C(=O)NCCCN(C)C)cc1
[1]
  AC50: 35.5 µM [falling, single point]

## Nc1nc(-c2ccco2)nn1C(=O)c1ccccc1Cl
[1]
  AC50: 3.98 µM [falling, full curve, poor fit]

## Cc1ccc(C)c2[nH]c(=O)c(CCNC(=O)c3cccs3)cc12
[1]
  AC50: 2.59 µM [rising, full curve]
